US7052859B2, “MUCIN 4 expression as a marker for pancreatic cancer” (The Board of Regents of the University of Nebraska, priority 2000, dated 2006)
At least one compound was matched to its structure with a doubt left.

Columns and labels:
[1] = tested on: MUC4 mRNA expression in PBMC; experiment: MUC4 mRNA expression (RT-PCR) in PBMC from healthy volunteers after incubation with cytokines, growth factors or mitogens; assay type: cell-based, human; conditions: incubated 24 and 48 hours, serum free, retinoic acid 100 nM, 1 μM, TGF-β2 10, 20 and 200 pg/ml
Procedure: Freshly prepared PBMC (10×10^6 cells) from healthy volunteers were stimulated with PHA (10 μg/ml) and LPS (20 μg/ml, all from Sigma) for 12 and 24 hours. To study the effect of different cytokines and growth factors on the MUC4 mRNA expression, 10 million PBMC were incubated with TGF-β1 (10; 20 and 200 pg/ml), TGF-β2 (10; 20 and 200 pg/ml) (all from R&D systems, Minneapolis, Minn.), retinoic acid (RA) (100 nM; 1 μM) (Sigma), GM-CSF (100 U/ml) (Immunex Corp. Seattle, Wash.), IL-1β (10 ng/ml), IL-6 (10 ng/ml), IL-9 (50 ng/ml), IFNγ (10 and 20 ng/ml), TNFα (10 and 50 ng/ml) or with IFNγ (10 and 20 ng/ml) in combination with TNFα (10 and 50 ng/ml) (all from PeproTech Inc., Rocky Hill, N.J.) for 24 and 48 hours under serum free conditions.
The single step RNA isolation method was used for RNA preparation as previously described (28,29). In brief, cells were homogenized in a denaturing solution containing 4 M guanidine thiocyanate. The homogenate was mixed sequentially with 2 M sodium acetate (pH 4), phenol and chloroform/isoamyl alcohol. […] The RNA pellet was then resuspended in diethyl pyrocarbonate (DEPC)-treated water, and the final RNA concentration was determined spectrophotometrically by measuring the absorbance at 260 nm and 280 nm (DU 640B, Beckman Coulter, Fullstone Calif.). […]

[2] = tested on: MUC4 expression in pancreatic cancer cells; conditions: previous work (31); cited from earlier work

Structure (SMILES): CC1=C(/C=C/C(C)=C/C=C/C(C)=C/C(=O)O)C(C)(C)CCC1 [retinoic acid]
- induction of MUC4 mRNA expression in PBMC [1]: neither incubation with retinoic acid and TGF-β2 nor the activation of T-cells and B-cells with PHA and LPS or incubation with various other cytokines induced MUC4 mRNA expression
- MUC4 expression after treatment [2]: resulted in MUC4 expression
